Measured values from PubChem BioAssay AID2417 (National Center for Advancing Translational Sciences (NCATS), 2010).
The whole screen tested about 140,000 compounds, of which about 4,300 (3.1%) were called active. The inconclusive results got no clear call from the source; some entries with a clear call stand among them for comparison.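 Rule for the calls: active = readout at or below -70, meaning at least 70% loss of cells showing the perinucleolar compartment, a nuclear body marking cancer cells; inconclusive = readout between -30 and a set limit; inactive = the rest.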

Test: High Content Assay for Compounds that inhibit the Assembly of the Perinucleolar Compartment;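 note: plate controls were DMSO wells for no effect and camptothecin positive control wells for full effect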
Details: PC3M PTB-GFP, PNC prevalence imaging, 16 h; at 10 µM; hits give low values
Summary of the method: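 Read-out is percentage of cells bearing a perinucleolar compartment, from automated 20x imaging of fixed, Hoechst-stained PC3M PTB-GFP cells. Cells were seeded 4 h, then exposed 16 h to compound (23 nl of library stock) in duplicate plates.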

SMILES | activity change (PNC), negative = inhibition
O=C(NCc1ccccc1)[C@@H]1CSC2c3ccccc3C(=O)N21 (some centres not stated) | inconclusive: -36.5%
COc1cccc(Nc2nc(-c3ccc4c(c3)OCCO4)cs2)c1 | inactive: -19%
Clc1ccc(-c2n[nH]c3c2CCC3)cc1Cl | inactive: 8.66%
COc1ccc(Nc2nc3c(C)cccc3cc2C#N)c(OC)c1 | inactive: 6.45%
CC(=NCc1ccco1)c1c(O)n(C2CCCCC2)c(=O)[nH]c1=O | inconclusive: -60.8%
Cc1nn(Cc2ccc([N+](=O)[O-])cc2)c(=O)n1-c1ccc(F)cc1 | inactive: -23.4%
CCOC(=O)c1sc2ccccc2c1OC(=O)c1ccc(C)cc1 | inconclusive: -46.6%
CCO/C=C1\C(=O)N(CC)c2ccccc21 | inconclusive: -70.6%
COc1ccc(CC(=O)Nc2cc(C)on2)cc1 | inconclusive: -67.5%
CNC(=O)c1ccc2nc(NC(C)=O)sc2c1 | inconclusive: -58%
Cc1nn(Cc2cccc(C(=O)N3CCCC(C)C3)c2)c(C)c1[N+](=O)[O-] (configuration not stated) | inconclusive: -52.3%
CC(C)CC(c1nnnn1CC1CCCO1)N1CCN(Cc2ccc3c(c2)OCO3)CC1 (configuration not stated) | inconclusive: -61.1%
Cc1c(C(=O)NCCSc2ccc(Cl)cc2)cccc1[N+](=O)[O-] | inactive: 5%
COc1cc(C(=S)N2CCCC2)cc(OC)c1OS(=O)(=O)c1ccc(NC(C)=O)cc1 | inactive: 1.85%
O=C(CNC(=O)c1cccs1)c1ccc([N+](=O)[O-])cc1 | inconclusive: -33.8%
CC(=O)c1cnc(SCCN2C(=O)c3ccccc3C2=O)nc1C | inconclusive: -32.7%
CCCOc1ccc(Cc2c(Cl)nc(SC)nc2N(C)C)cc1 | inconclusive: -33.7%
Cc1nn(-c2ccccc2)c(N)c1C(c1ccc(C(C)C)cc1)c1c(C)nn(-c2ccccc2)c1N | inconclusive: -36%
COC(=O)C1=C(C)NC(C)=C(C(=O)OC)C1c1ccc2ccccc2n1 | inactive: 18.7%
CCCc1nc(Nc2nc3ccccc3o2)nc(C)c1C(=O)OCC | inconclusive: -54.6%
Cc1nnc(SCC(=O)Nc2ccc3c(c2)OCCO3)n1N | inconclusive: -51.9%
CCCn1nc(NS(C)(=O)=O)c2cc3cccc(C)c3nc21 | inconclusive: -48.2%
CCCCOC1(c2ccccc2)NC(=S)NN=C1c1ccccc1 (configuration not stated) | inactive: 3.58%
COC(=O)c1ccccc1NC(=O)CN1CCC(NC(=O)c2ccccc2C)CC1 | inactive: -2.62%

SMILES | activity change (PNC), negative = inhibition
CC(=O)c1c(N2CCOCC2)nc(=S)n(-c2cc(C)ccc2C)c1C | inconclusive: -40.2%
c1cncc(C(c2nnnn2C2CCCC2)N2CCCC2)c1 (configuration not stated) | inconclusive: -57.4%
Cn1ncc(Cl)c1C(=O)Nc1ccc(Cl)cn1 | active: -100%
CCOC(=O)CC1C(=O)NCCN1C(=S)Nc1ccccc1 (configuration not stated) | active: -91%
COc1ccc(C(C#N)(CCC#N)CCC#N)cc1OC | inconclusive: -37.1%
C/C(N)=C(/C#N)C(=O)COC(=O)CCC1CCCC1 | inactive: 16.5%
CC1CCCCN1CCCn1c(=S)[nH]c2ccccc2c1=O (configuration not stated) | inconclusive: -52.4%
Cc1c(C(=O)N2CCC(C(N)=O)CC2)sc(N)c1C#N | inconclusive: -49.1%
O=C(CN1c2cccc3cccc(c23)S1(=O)=O)N1CCOCC1 | inconclusive: -36.3%
CC(C)=NNC(=O)CN1C(=O)NC2NC(=O)NC21 (configuration not stated) | inconclusive: -37.8%
CCC(=O)N1CCc2cc(Br)cc(S(=O)(=O)NCC3CCCN3CC)c21 (configuration not stated) | inconclusive: -37.6%
COc1ccc(S(=O)(=O)N(CCc2ccccc2)CC(=O)O)cc1Cl | inconclusive: -32.1%
CCC(=O)N1N=C(c2c(-c3ccccc3)c3cc(Cl)ccc3[nH]c2=O)CC1c1ccco1 (configuration not stated) | active: -81.9%
CC(C)Cn1c(CNC(=O)c2ccccc2)nc2ccccc21 | inactive: 4.04%
O=S(=O)(Nc1ccc2c(c1)OCCO2)c1cnc[nH]1 | inactive: 15.3%
CCN1C2=C(C(=O)CCC2)C(c2ccc(O)cc2)C2=C1CCCC2=O | inconclusive: -48.1%
CCOC(=O)c1c(NC(=O)c2c(-c3ccccc3)noc2C)sc(C)c1-c1ccccc1 | active: -103%
CCOC(=O)C1CCCN(C/C(O)=C(\C#N)c2nc(-c3ccc(Cl)cc3)cs2)C1 (configuration not stated) | inconclusive: -66.2%
C=CCn1c(-c2ccccc2)c[nH]c1=S | active: -117%
O=C(Oc1ccc(-c2cnc3ccccc3n2)cc1)c1ccco1 | inconclusive: -31.1%
Nc1n[nH]c(-c2ccccc2)n1 | inconclusive: -35.4%
COc1ccc(OC)c(S(=O)(=O)Nc2ccc(Oc3ccccc3)cc2)c1 | inactive: -0.195%
CCOc1ccc(-n2c(N)c(C(=O)NCc3cccnc3)sc2=S)cc1 | inactive: -14.6%

By substructure, the entries above containing a thiophene ring, fused or not
SMILES | activity change (PNC), negative = inhibition
CCOC(=O)c1sc2ccccc2c1OC(=O)c1ccc(C)cc1 | inconclusive: -46.6%
O=C(CNC(=O)c1cccs1)c1ccc([N+](=O)[O-])cc1 | inconclusive: -33.8%
Cc1c(C(=O)N2CCC(C(N)=O)CC2)sc(N)c1C#N | inconclusive: -49.1%
CCOC(=O)c1c(NC(=O)c2c(-c3ccccc3)noc2C)sc(C)c1-c1ccccc1 | active: -103%
